Source: the supplement of paper PMC10849652
The other results are listed elsewhere or left out. Residues, ends and D or L forms follow the SMILES beside them. *: point of attachment. Cbz = O=C(OCc1ccccc1)*

By UniProt entry, the sequences of proteins in these tests, tags left out. Where a name states a change or a piece, a line headed by the entry shows the natural chain unless it says otherwise.
UniProt P28300: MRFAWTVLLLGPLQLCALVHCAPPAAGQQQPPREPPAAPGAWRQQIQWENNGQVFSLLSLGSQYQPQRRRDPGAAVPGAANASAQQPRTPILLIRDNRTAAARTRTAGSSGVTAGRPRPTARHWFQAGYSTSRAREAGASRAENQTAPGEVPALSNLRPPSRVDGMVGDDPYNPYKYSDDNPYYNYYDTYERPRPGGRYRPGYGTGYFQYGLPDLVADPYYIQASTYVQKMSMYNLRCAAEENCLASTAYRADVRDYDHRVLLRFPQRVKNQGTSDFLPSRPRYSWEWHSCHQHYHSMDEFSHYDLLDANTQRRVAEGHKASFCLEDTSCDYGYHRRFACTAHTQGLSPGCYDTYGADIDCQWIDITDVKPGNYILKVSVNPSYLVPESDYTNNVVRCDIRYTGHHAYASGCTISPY
UniProt P17931, whole entry, looked up: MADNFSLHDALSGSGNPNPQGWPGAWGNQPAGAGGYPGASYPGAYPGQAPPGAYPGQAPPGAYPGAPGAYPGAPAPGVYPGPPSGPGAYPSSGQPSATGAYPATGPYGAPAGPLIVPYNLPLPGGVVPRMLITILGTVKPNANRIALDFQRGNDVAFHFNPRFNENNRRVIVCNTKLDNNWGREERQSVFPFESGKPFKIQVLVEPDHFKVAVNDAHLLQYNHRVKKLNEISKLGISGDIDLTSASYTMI
UniProt P24043: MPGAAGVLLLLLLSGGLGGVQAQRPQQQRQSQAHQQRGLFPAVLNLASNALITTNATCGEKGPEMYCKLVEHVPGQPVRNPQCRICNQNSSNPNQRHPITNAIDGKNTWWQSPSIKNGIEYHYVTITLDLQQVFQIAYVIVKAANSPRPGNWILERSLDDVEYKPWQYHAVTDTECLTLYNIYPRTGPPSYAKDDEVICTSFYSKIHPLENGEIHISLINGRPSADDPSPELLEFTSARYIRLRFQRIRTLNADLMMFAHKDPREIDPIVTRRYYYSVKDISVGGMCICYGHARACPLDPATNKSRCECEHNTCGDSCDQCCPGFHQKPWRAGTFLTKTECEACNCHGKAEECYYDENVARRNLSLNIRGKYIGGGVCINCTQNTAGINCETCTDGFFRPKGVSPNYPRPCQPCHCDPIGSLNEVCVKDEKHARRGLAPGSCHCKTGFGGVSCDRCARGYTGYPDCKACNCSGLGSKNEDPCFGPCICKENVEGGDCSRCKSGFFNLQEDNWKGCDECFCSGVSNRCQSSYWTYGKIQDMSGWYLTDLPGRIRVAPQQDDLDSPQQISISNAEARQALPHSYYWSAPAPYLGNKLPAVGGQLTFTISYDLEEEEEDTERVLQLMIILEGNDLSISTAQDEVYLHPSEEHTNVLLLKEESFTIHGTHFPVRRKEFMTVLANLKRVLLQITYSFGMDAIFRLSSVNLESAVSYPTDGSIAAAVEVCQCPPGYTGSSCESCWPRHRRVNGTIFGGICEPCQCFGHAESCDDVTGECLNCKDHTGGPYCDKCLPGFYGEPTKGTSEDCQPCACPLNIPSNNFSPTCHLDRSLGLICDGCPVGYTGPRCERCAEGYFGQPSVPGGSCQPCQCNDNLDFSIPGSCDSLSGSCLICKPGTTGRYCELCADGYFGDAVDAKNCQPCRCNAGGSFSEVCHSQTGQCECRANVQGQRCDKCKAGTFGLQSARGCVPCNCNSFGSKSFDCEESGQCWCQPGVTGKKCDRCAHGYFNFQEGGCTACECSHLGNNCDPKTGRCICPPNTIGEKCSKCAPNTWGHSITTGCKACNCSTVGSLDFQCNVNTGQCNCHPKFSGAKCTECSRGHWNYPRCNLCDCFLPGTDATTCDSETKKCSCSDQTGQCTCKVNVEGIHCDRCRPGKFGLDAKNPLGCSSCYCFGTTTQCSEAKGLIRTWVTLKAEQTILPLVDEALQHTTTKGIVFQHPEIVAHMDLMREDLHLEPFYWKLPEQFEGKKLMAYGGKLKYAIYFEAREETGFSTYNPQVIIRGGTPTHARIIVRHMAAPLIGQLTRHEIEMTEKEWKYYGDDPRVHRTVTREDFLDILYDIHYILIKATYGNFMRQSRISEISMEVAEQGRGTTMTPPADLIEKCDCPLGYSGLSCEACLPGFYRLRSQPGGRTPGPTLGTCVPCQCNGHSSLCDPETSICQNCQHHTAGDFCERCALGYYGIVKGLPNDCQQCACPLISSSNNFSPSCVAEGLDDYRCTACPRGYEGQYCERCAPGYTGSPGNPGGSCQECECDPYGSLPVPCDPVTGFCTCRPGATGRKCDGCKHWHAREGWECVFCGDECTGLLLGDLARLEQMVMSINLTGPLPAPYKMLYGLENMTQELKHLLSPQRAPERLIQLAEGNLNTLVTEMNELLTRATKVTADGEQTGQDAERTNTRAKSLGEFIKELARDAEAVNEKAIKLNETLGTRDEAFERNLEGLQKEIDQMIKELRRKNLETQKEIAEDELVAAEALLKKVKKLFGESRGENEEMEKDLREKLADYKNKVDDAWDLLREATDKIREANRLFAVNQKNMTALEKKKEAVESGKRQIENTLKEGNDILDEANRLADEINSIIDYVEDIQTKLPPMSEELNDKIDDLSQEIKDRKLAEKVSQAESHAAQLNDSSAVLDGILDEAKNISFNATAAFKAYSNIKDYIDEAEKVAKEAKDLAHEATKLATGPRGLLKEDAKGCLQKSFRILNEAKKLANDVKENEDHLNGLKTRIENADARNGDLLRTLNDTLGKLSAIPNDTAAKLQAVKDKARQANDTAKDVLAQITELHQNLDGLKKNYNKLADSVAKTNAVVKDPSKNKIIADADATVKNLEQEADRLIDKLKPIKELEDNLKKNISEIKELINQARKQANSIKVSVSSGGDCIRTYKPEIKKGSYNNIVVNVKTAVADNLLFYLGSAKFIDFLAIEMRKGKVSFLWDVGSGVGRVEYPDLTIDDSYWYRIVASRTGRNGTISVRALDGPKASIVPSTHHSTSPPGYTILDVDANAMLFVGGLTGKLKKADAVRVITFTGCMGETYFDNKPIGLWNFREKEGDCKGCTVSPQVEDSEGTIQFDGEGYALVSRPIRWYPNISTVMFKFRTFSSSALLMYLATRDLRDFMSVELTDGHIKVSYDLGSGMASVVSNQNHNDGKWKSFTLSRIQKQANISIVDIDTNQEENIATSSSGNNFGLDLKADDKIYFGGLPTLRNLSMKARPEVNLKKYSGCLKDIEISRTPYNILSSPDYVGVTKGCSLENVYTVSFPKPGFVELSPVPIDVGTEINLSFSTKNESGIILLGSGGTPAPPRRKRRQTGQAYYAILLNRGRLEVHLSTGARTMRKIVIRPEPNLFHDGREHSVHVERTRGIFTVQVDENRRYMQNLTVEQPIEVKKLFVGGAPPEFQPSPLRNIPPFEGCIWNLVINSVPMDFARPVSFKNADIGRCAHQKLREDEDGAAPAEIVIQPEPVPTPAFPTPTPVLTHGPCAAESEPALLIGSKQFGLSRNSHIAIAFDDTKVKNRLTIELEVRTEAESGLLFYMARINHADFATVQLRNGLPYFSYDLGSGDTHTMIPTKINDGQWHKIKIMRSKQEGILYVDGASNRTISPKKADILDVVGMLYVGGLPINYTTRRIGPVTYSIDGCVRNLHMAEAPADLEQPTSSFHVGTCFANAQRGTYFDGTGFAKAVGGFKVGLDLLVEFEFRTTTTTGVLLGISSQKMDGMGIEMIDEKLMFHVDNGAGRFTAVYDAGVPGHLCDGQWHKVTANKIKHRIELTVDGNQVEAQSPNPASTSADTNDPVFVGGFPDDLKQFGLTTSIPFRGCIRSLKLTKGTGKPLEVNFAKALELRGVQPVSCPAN
UniProt A6NK58: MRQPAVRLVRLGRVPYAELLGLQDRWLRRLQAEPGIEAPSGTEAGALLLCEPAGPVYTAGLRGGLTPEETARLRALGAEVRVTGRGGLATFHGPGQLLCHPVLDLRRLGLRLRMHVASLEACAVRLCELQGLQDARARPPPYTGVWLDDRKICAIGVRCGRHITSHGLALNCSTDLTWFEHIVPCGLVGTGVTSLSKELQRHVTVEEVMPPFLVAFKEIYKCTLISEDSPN
UniProt Q3ZCW2: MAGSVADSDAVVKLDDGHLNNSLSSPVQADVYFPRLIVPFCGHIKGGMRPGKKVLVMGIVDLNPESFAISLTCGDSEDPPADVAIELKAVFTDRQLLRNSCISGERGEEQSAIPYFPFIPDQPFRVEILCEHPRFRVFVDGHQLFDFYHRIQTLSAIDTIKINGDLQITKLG
UniProt Q9GZZ8: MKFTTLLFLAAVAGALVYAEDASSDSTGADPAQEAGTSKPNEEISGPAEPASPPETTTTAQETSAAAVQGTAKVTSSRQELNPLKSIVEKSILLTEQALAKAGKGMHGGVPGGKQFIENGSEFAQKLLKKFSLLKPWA
UniProt Q643R3: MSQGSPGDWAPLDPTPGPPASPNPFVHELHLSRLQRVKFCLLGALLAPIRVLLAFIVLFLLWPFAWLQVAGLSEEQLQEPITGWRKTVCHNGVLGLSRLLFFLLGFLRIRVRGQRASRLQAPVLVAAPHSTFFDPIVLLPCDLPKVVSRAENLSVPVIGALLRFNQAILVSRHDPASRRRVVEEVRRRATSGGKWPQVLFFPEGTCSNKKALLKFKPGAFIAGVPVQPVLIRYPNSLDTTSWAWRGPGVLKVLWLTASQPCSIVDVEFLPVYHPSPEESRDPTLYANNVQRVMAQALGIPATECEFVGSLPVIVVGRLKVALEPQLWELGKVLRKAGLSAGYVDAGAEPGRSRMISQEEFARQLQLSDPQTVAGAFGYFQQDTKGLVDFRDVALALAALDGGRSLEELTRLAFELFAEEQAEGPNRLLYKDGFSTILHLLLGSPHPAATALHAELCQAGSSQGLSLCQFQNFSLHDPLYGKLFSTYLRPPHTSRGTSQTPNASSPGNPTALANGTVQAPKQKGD
UniProt Q96FQ7: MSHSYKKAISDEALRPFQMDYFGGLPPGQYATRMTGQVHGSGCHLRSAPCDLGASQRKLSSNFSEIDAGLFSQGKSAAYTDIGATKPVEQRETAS
UniProt Q08380: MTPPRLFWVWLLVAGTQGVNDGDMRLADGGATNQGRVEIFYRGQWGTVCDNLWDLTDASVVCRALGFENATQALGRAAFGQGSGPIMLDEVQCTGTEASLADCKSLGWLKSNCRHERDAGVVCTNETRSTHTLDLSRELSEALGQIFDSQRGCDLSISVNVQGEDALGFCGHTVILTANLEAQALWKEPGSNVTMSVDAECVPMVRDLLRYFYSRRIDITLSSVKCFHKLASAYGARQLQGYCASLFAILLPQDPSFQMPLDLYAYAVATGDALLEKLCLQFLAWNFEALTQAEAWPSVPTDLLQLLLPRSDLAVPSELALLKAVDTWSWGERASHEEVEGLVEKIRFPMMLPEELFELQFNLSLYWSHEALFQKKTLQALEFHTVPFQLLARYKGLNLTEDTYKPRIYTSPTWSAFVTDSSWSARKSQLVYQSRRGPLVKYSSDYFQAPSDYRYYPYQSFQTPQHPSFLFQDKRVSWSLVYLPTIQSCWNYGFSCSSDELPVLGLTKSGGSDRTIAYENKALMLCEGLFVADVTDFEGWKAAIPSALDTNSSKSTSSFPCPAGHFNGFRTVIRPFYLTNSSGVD
UniProt P07864: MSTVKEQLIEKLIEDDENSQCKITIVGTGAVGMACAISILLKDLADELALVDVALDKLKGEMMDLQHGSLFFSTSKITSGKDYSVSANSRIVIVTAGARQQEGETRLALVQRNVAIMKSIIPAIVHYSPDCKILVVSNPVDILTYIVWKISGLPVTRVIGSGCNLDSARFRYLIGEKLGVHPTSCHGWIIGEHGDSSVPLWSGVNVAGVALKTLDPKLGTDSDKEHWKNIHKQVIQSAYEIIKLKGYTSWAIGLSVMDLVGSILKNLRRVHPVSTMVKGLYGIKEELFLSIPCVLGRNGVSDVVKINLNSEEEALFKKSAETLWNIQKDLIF
UniProt P80188: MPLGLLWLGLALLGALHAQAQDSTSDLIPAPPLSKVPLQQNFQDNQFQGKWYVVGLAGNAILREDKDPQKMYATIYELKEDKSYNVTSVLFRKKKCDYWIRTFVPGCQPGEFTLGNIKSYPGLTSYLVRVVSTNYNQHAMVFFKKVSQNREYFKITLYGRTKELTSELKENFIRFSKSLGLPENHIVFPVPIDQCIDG
UniProt P23490: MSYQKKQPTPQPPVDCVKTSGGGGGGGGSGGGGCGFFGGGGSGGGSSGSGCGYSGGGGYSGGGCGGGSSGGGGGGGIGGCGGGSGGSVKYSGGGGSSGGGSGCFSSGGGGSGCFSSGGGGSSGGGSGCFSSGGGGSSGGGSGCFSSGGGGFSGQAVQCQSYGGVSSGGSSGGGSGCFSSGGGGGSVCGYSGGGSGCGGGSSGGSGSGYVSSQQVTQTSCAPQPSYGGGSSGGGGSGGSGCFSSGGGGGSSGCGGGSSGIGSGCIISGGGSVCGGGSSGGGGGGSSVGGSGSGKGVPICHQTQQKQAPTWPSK
UniProt Q9H9Z2: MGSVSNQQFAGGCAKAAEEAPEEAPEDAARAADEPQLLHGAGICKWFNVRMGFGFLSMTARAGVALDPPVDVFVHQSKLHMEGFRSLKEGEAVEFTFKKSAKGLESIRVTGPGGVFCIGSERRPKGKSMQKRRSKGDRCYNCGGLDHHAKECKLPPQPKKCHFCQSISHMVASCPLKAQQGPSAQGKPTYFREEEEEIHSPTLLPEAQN

Key:
Assay in all cases: log2 fold change, soluble protein after heating vs DMSO (PISA); higher = thermal stabilisation; K562 cells, 10 uM, 30 min; active = over 0.2 and 3.5 SD of the protein, either way, in both replicates (recomputed)
[1] = compound: C/C(=N\NC(=O)C1=CC(=CC=C1)S(=O)(=O)N2CCOCC2)/C3=C(C=CC(=C3)Cl)O
Outline: (§1)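 For each measurement, 10 μM compound was applied for 30 min to K562 cells at 2×10^6 cells/mL. Aliquots were heated for 3 min across 48°C-58°C, pooled, and extracted in PBS with 0.5% NP-40 at 4°C; the supernatant after 21,000xg for 90 min was soluble protein. This was quantified by TMTpro 16plex LC-MS/MS with channel sums equalised, and thermal stability was reported relative to control samples from duplicates, on a log2 fold-change scale.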

[2] = compound: C1=CC(=C(C=C1Cl)C2=NC3=NC=CN=C3C(=N2)NC4=CC=NC=C4)F
Outline: as §1

[3] = compound: C1=CC2=C(C=CC(=C2)/C=C\3/C(=O)NC(=NCC4=CC=CS4)S3)N=C1
Outline: as §1

[4] = compound: C1=CC=C2C(=C1)C3=NNC4=CC=CC(=C43)C2=O
Outline: as §1

[5] = compound: C1CCN(C1)C(=O)NC2=CC=CC(=C2)NC3=NC=C(C(=N3)NCCC4=CN=CN4)Br
Outline: as §1

[6] = compound: C1CN(CCC1(CC2=CC=C(C=C2)Cl)N)C3=NC=NC4=C3C=CN4
Outline: as §1

[7] = compound: CC(=O)c1cnc2ccc(-c3cc(Cl)c(O)c(Cl)c3)nc2c1N[C@H]1CC[C@H](CN(C)C)CC1
Outline: as §1

[8] = compound: CC(C)(O)CC(=O)NCCn1ccc2ncnc(Nc3ccc(Oc4cccc(C(F)(F)F)c4)c(Cl)c3)c21
Outline: as §1

[9] = compound: CC1=C(C(CC(=O)N1)C2=CC=C(C=C2)C(F)(F)F)C(=O)NC3=C(C=C4C(=C3)C=NN4)F
Outline: as §1

[10] = compound: CC1=C(C2=C(C=C1)C(=O)C3=CC=CC=C3N2CCCN)C
Outline: as §1

[11] = compound: C#Cc1cccc(Nc2ncnc3cc(OCCOC)c(OCCOC)cc23)c1 [erlotinib]
Outline: as §1

[12] = compound: C1=CC(=CC=C1C2=NC3=C(N2)C=C(C=C3)C(=O)N)OC4=CC=C(C=C4)Cl
Outline: as §1

[13] = compound: C1=CC2=NC=CN=C2C=C1/C=C/3\C(=O)NC(=O)S3
Outline: as §1

[14] = compound: C=CC(=O)N1CCC[C@@H](n2nc(-c3ccc(Oc4ccccc4)cc3)c3c(N)ncnc32)C1 [ibrutinib]
Outline: as §1

[15] = compound: CC(C)C1=C2N=C(C=C(N2N=C1)NCC3=CC=CC=C3)NCCCCCCN
Outline: as §1

[16] = compound: C1=CC=C(C=C1)C2=NC(=C(N2)C3=CC=NC=C3)C4=CC(=C(C=C4)Cl)O
Outline: as §1

[17] = compound: CC(C)(C)Cn1c(N)nc2ccc(-c3[nH]c(C(C)(C)C)nc3-c3ccc(F)cc3)nc21 [ralimetinib]
Outline: as §1

[18] = compound: CC(C)C[C@@H](C=O)NC(=O)[C@H](CC(C)C)NC(=O)[C@H](CC(C)C)NC(=O)OCc1ccccc1
Outline: as §1

[19] = compound: C1COCCN1CCN2C3=CC=CC=C3N=C2NC(=O)C4=CC(=CC=C4)[N+](=O)[O-] [IRAK-1-4 Inhibitor I]
Outline: as §1

[20] = compound: CC(C)N(C[C@H]1O[C@@H](n2cnc3c(N)ncnc32)[C@H](O)[C@@H]1O)[C@H]1C[C@@H](CCc2nc3cc(C(C)(C)C)ccc3[nH]2)C1 [pinometostat]
Outline: as §1

Measured: log2 fold change

LRP1 (UniProt Q07954)
inactive: [1] -0.468 | [2] -0.073 | [3] 0.096 | [4] 0.076 | [5] 0.002 | [6] 0.082 | [7] 0.08 | [8] -0.079 | [9] 0.271 | [10] 0.058

LOX (UniProt P28300)
inactive: [11] -0.245 | [12] 0.315 | [13] 0.038 | [14] 0.074 | [15] -0.218

LRMP (UniProt Q12912)
inactive: [16] 0.011 | [17] 0.028 | [18] 0.126

LANCL3 (UniProt Q6ZV70)
inactive: [1] 0.055 | [2] 0.079 | [3] -0.08 | [13] -0.093 | [4] -0.072 | [19] -0.017 | [14] -0.097 | [7] -0.018 | [8] -0.068 | [20] 0.03 | [9] 0.061

LEPROTL1 isoform 2 (UniProt O95214)
inactive: [1] 0.079 | [3] 0.027 | [13] 0.342 | [16] 0.066 | [4] -0.023 | [5] 0.045 | [6] -0.022 | [19] -0.204 | [14] 0.182 | [7] 0.083 | [17] 0.181 | [18] -0.092 | [20] -0.165 | [9] 0.149 | [10] 0.106

LGALS3 (UniProt P17931)
inactive: [13] -0.058 | [16] -0.263 | [14] -0.043 | [17] -0.097 | [18] 0 | [9] -0.244

LIPT1 (UniProt Q9Y234)
inactive: [1] -0.227 | [3] 0.004 | [4] -0.151 | [7] 0.06

LAMB2 (UniProt P55268)
inactive: [16] 0.066 | [5] 0.202 | [6] -0.263 | [17] 0.073 | [18] 0.303 | [10] 0.13

LPP (UniProt Q93052)
inactive: [2] 0.071 | [13] -0.058 | [19] 0.025 | [14] 0.191 | [8] 0.063 | [20] -0.33 | [9] -0.145

LIN9 isoform 2 (UniProt Q5TKA1)
inactive: [1] -0.09 | [2] -0.007 | [3] 0.065 | [13] -0.066 | [16] -0.13 | [4] -0.042 | [5] 0.046 | [6] 0.306 | [19] -0.108 | [14] 0.053 | [7] -0.054 | [17] 0.009 | [8] 0.008 | [18] 0.023 | [20] -0.034 | [10] -0.214

LDHD (UniProt Q86WU2)
inactive: [11] -0.057 | [12] -0.007 | [15] 0.062

LCOR isoform 3 (UniProt Q96JN0)
inactive: [1] -0.134 | [3] -0.172 | [4] -0.02 | [7] 0.037

LAMA2 (UniProt P24043)
inactive: [11] 0.429 | [12] -0.187 | [13] 0.108 | [14] -0.003 | [15] 0.393 | [9] -0.023

LAPTM5 (UniProt Q13571)
inactive: [1] -0.061 | [3] -0.064 | [13] -0.118 | [16] 0.048 | [4] 0.006 | [5] 0.103 | [6] 0.092 | [14] -0.075 | [7] 0.226 | [17] 0.02 | [18] 0.178 | [10] -0.045

LIPT2 (UniProt A6NK58)
inactive: [2] -0.004 | [5] -0.055 | [6] 0.048 | [8] 0.065 | [10] 0.033

LIMS1 (UniProt P48059)
inactive: [13] 0.113 | [19] 0.028 | [14] -0.014 | [20] -0.156

L1TD1 (UniProt Q5T7N2)
inactive: [1] -0.071 | [3] 0.364 | [4] -0.055 | [5] 0.165 | [6] -0.099 | [19] 0.108 | [7] -0.223 | [20] 0.127 | [10] 0.092

LAS1L (UniProt Q9Y4W2)
inactive: [1] 0.004 | [2] -0.257 | [3] -0.064 | [13] 0.04 | [16] 0.077 | [4] 0.01 | [5] -0.027 | [6] -0.169 | [19] -0.213 | [14] -0.278 | [7] 0.213 | [17] 0.163 | [8] 0.027 | [18] -0.279 | [20] 0.185 | [10] -0.166

LARGE2 (UniProt Q8N3Y3)
inactive: [19] -0.17 | [20] -0.032

LGALSL (UniProt Q3ZCW2)
inactive: [19] 0.332 | [20] -0.017

LAPTM4B (UniProt Q86VI4)
inactive: [11] -0.074 | [12] -0.054 | [13] 0.093 | [14] 0.019 | [15] 0.141

LIMK1 (UniProt P53667)
inactive: [2] 0.046 | [13] 0.104 | [5] -0.134 | [6] 0.022 | [19] 0.13 | [14] 0.169 | [8] -0.13 | [20] 0.073 | [10] 0.051

LRP10 (UniProt Q7Z4F1)
inactive: [1] 0.046 | [2] -0.123 | [3] -0.094 | [13] 0.009 | [16] 0.102 | [4] -0.013 | [19] -0.194 | [14] 0.048 | [7] -0.061 | [17] -0.115 | [8] -0.032 | [18] 0.389 | [20] 0.112 | [9] 0.007

LMLN isoform 3 (UniProt Q96KR4)
inactive: [2] -0.043 | [13] 0.135 | [14] -0.209 | [8] 0.154

LACRT (UniProt Q9GZZ8)
inactive: [1] 0.086 | [2] 0.243 | [3] -0.029 | [13] -0.436 | [16] -0.257 | [4] -0.211 | [14] 0.145 | [7] 0.091 | [17] -0.135 | [8] 0.135 | [18] 0.104 | [9] -0.622

LBH (UniProt Q53QV2)
inactive: [1] 0.172 | [2] 0.008 | [3] 0.202 | [16] -0.114 | [4] 0.298 | [7] -0.108 | [17] -0.324 | [8] -0.253 | [18] 0.001 | [9] 0.011

LEG1 (UniProt Q6P5S2)
inactive: [1] 0.135 | [3] -0.398 | [13] -0.088 | [4] -0.118 | [14] -0.043 | [7] 0.019 | [9] -0.052

LPCAT4 (UniProt Q643R3)
inactive: [2] -0.224 | [19] -0.095 | [8] -0.14 | [20] 0.147

Two consecutive entries out of the list so far:
LACRT (UniProt Q9GZZ8)
inactive: [1] 0.086 | [2] 0.243 | [3] -0.029 | [13] -0.436 | [16] -0.257 | [4] -0.211 | [14] 0.145 | [7] 0.091 | [17] -0.135 | [8] 0.135 | [18] 0.104 | [9] -0.622

LBH (UniProt Q53QV2)
inactive: [1] 0.172 | [2] 0.008 | [3] 0.202 | [16] -0.114 | [4] 0.298 | [7] -0.108 | [17] -0.324 | [8] -0.253 | [18] 0.001 | [9] 0.011

Going on with the list.

LMO4 (UniProt P61968)
inactive: [1] -0.021 | [3] -0.009 | [13] 0.067 | [16] 0.083 | [4] -0.004 | [5] -0.008 | [6] 0.226 | [19] 0.071 | [14] 0.099 | [7] -0.065 | [17] 0.155 | [18] -0.043 | [20] -0.07 | [10] -0.009

LINC00526 (UniProt Q96FQ7)
inactive: [11] -0.066 | [12] 0.151 | [15] 0.002

LGALS3BP (UniProt Q08380)
inactive: [1] 0.107 | [2] -0.03 | [3] -0.009 | [4] 0.026 | [7] 0.048 | [8] 0.091 | [9] 0.108

LARP1B, A0A3B3ISF0
inactive: [16] -0.046 | [17] 0.001 | [18] 0.131

LDHC (UniProt P07864)
inactive: [2] 0.02 | [13] 0.131 | [14] -0.001 | [8] 0.129 | [9] 0.037

LCN2 isoform 2 (UniProt P80188)
inactive: [5] -0.078 | [6] -0.015 | [10] 0.157

LOR (UniProt P23490)
inactive: [2] -0.083 | [8] 0.4

LIN28A (UniProt Q9H9Z2)
inactive: [13] 0.114 | [14] -0.251

LRCH4 (UniProt O75427)
inactive: [2] -0.036 | [16] -0.041 | [19] -0.069 | [17] -0.011 | [8] 0.083 | [18] 0.126 | [20] 0.223
